Values quoted from earlier work as cited in patent US20240165126A1, “TIANEPTINE OXALATE AND NALOXONE COMBINATION FOR THE TREATMENT OF MAJOR DEPRESSIVE DISORDER” (TONIX PHARMACEUTICALS HOLDING CORP., priority 2021, published 2024).

Details: Wagstaff et al. 2001

In the case of `CN1c2ccccc2C(NCCCCCCC(=O)O)c2ccc(Cl)cc2S1(=O)=O` (stereo not shown) [Tianeptine, 7-[(3-chloro-6-methyl-5,5-dioxo-11H-benzo[c][2,1]benzothiazepin-11-yl)amino]heptanoic acid], the bioavailability is given as “about 99%”.
